Tested on: root epidermal cells, endomembrane markers
Test: Subcellular localization by confocal microscopy
Format: cell-based, Arabidopsis
Excerpt: proPLS::PLS:GFP comprises a 1.5-kb PLS promoter sequence ([Casson et al., 2002]) fused to the PLS open reading frame in pMDC107 (obtained from Prof. P.J. Hussey, Durham University) as a C-terminal GFP translational fusion. The PLS ORF with its 1.5-kb promoter was amplified from the TOPO 2.1 vector, which contained the PLS gene sequence with promoter ([Casson et al., 2002]); the primers used for cloning are listed in supplemental Table 9. pls mutant plants were transformed using the method of [Clough and Bent (1998)]. proPLS::GFP plants were generated using the 1.5-kb PLS promoter ([Casson et al., 2002]) fused to GFP in a wild-type background. p35S::GFP seedlings were obtained from Dr. Piers Hemsley, Durham University. […] Seedlings were scanned to create a digital image, and root lengths of the seedlings were measured using ImageJ. […]
CSLM images for propidium iodide and GFP were obtained using a Leica SP5 TCS confocal microscope as described previously ([Rowe et al., 2016]). proPLS::PLS:GFP, proPLS::GFP, and pro35S::GFP seedlings were grown for 7 days on Phytagel ½ MS10 medium before ∼25 mm of the root tip was removed and mounted in dH2O prior to imaging. […] For standard photomultiplier tubes, a laser power of 21% and a smart gain of 800–1000 mV were used, depending on the intensity of the fluorescence. […]

Substance: PLS:GFP: fusion protein of PLS with C-terminal GFP (MKPRLCFNFRRRSISPCYISISYLLVAKLFKLFKIH; left off: GFP, C-terminal, kept)
- nuclear and cytoplasmic localization (proPLS::PLS:GFP plants): appeared to localize to the nucleus and cytoplasm
- localization to Golgi (trans-Golgi ST1 mCherry marker): did not localize to the Golgi
